“And” between values parts separate entries of the source, which are not always exact repeats. Equal values may be shown once. Out of some 410,000 compounds screened, about 18,000 (4.4%) were called active. Inconclusive results, whose numbers are uncertain, are shown with a selection of clear calls. Cut-off read from the data, not from the text of the source: active = activity change below about -60%; inconclusive = no clear call, values can overlap the other calls; inactive = above about -39%. A structure can be active in one record and inactive in another.
Assay: qHTS Assay for inhibitors of the human cytomegalovirus (HCMV)
Details: HFF cells, HCMV-luciferase reporter, 72 h; at 57.5 µM; active compounds read low
How it was run: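 Cell-based, HFFs, 1000 cells/well, 16 h 37C; cpds in DMSO + HCMV-luc, MOI 1 PFU/cell; 72 h 37C; OneGlo luminescence after 5 min RT; norm. to buffer vs Salinomycin 10uM.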
% is set by controls: 0 for no effect and ±100 for the full control effect.

| Compound | activity change, negative = inhibition |
| --- | --- |
| CC1CCC(C(C)C)C2=C1C(C#N)(C#N)C(C#N)(C#N)C(c1ccccc1)N2 (stereo unspecified) | inconclusive: -53.8% |
| CC(C)(C)c1ccccc1OCCOCCN1CCCCCC1 | inconclusive: -49.8% |
| O=C(Nc1ccccc1)C1Cc2c(-c3ccco3)ccnc2O1 (stereo unspecified) | inactive: -34.1% |
| O=c1c2ccccc2[nH]c(=S)n1CCCN1CCN(c2ccccc2)CC1 | active: -67.4% |
| COc1ccccc1NC(=S)N(Cc1ccco1)Cc1cc2cc(C)c(C)cc2[nH]c1=O | active: -61.9% |
| CC(=NNC(=O)c1ccncc1)c1ccccc1O | active: -98.4% |
| Cc1cccc(-n2c(/C=C/c3cccc4ccccc34)nc3ccccc3c2=O)c1 | inconclusive: -48.4% |
| Cc1ccc(N=C2SC(C(=O)Nc3ccc(OC(F)(F)F)cc3)C(N)=C2C(=O)Nc2c(C)cc(C)cc2C)cc1 (stereo unspecified) | inconclusive: -48.3% |
| COc1cc(OC)cc(C(=O)NCc2ccc3c(c2)CCN3C(=O)c2ccccc2)c1 | inconclusive: -47.9% |
| COC(=O)CCCC(=O)N1CCC(CO)(CCc2ccccc2)CC1 | inactive: 59.6% |
| O=c1c2ccccc2nc(/C=C\c2cccc(Br)c2)n1-c1ccc(O)cc1 | active: -92% |
| Cc1ccc(C(=O)O)cc1NC(=S)NC(=O)c1ccc([N+](=O)[O-])c(C)c1 | inconclusive: -45.3% |
| COc1ccc(C)c2sc(N(Cc3cccnc3)C(=O)COc3ccccc3)nc12 | inconclusive: 0% |
| S=c1nc(-c2ccccc2)n(CCCn2ccnc2)c2c1CCCC2 | inconclusive: -40.2% |
| O=C(c1ccccc1)c1ccc(NCCCn2ccnc2)c([N+](=O)[O-])c1 | inconclusive: -55.7% |
| C[C@H]1CN([C@@H](C)CO)C(=O)CCCn2nncc2CO[C@H]1CN(C)C(=O)Oc1ccc2ccccc2c1 | inactive: -12.5% |
| CCCC(C)C(=O)Nc1ccc(S(=O)(=O)Nc2nccs2)cc1 (stereo unspecified) | inconclusive: -40.9% |
| COC(=O)c1ccccc1NC(=S)N(Cc1ccc2c(c1)OCO2)Cc1cc2ccc(OC)cc2[nH]c1=O | active: -63.4% |
| CCN(CC)S(=O)(=O)c1ccc(N2CCOCC2)c(NC(=O)c2cc3ccccc3oc2=O)c1 | inconclusive: -42.4% |
| CCn1cc(CNC(=O)c2cc(-c3cc(OC)ccc3OC)nc3ccccc23)c(C)n1 | inconclusive: -47.6% |
| O=C(O)c1ccc2c(c1)N(Cc1cccc(F)c1)C(=O)CS2 | active: -99.5% |
| C=C(C)COc1ccc(-c2n[nH]c(C)c2-c2ccc(OC)cc2)c(O)c1 | active: -106% |

Looked up above.
In activity change, negative = inhibition, CCN(CC)S(=O)(=O)c1ccc(N2CCOCC2)c(NC(=O)c2cc3ccccc3oc2=O)c1 has the entry inconclusive: -42.4%
In activity change, negative = inhibition, CC(=NNC(=O)c1ccncc1)c1ccccc1O has the entry active: -98.4%
In activity change, negative = inhibition, S=c1nc(-c2ccccc2)n(CCCn2ccnc2)c2c1CCCC2 has the entry inconclusive: -40.2%

The results go on:

| Compound | activity change, negative = inhibition |
| --- | --- |
| COc1cc(N)c(Cl)cc1C(=O)OCC(=O)NCC1CCCCC1 | active: -66.4% |
| Cc1ccc(CCNC(=O)C2CCN(S(=O)(=O)c3ccc4c(c3)NC(=O)C(C)S4)CC2)cc1 (stereo unspecified) | inconclusive: -47.5% |
| CCC1CCCCN1CCCNC(=O)c1cc2c(Cl)nc3ccc(C)cc3c2s1 (stereo unspecified) | active: -106% |
| CCSc1ccc([C@@H]2[C@@H]3C(=O)N(CC)C(=O)[C@@H]3[C@]3(C(=O)OC)CCCCN23)cc1 | inactive: -26.5% |
| CCC1CCCCN1CCCNC(=O)c1ccc2c(c1)N(Cc1cccc(C)c1)C(=O)c1ccccc1S2(=O)=O (stereo unspecified) | active: -64.5% |
| COC(=O)CC/C(O)=C1\C(=O)CC(C)(C)CC1=NCCc1nc2ccccc2[nH]1 | inconclusive: -41.5% |
| CCc1ccc(S(=O)(=O)N/N=C\c2ccc3c(c2)OCO3)cc1 | inconclusive: -44.8% |
| COC(=O)/C(=C\c1cccnc1)NC(=O)c1ccc(OCc2ccccc2)cc1 | inconclusive: -41.3% |
| CN1CCc2nc(NC(=O)c3cccc(S(=O)(=O)N4CCc5ccccc54)c3)sc2C1 | inactive: 20.8% |
| CC(Nc1cc(C)cc(C)c1)=[N+](C)CCNS(=O)(=O)c1ccc(Cl)cc1 | inactive: 12.4% |
| COc1ccc2oc(C(=O)OCC(=O)NC(=O)c3ccccc3)c(C)c2c1 | inconclusive: -43.5% |
| O=C(N/N=C/c1cccs1)c1cncc(Br)c1 | inactive: -28.3% |
| O=C(COc1ccc(Cl)cc1)N/N=C/CCc1ccccc1 | inactive: -1.74% |
| Nn1c(SC/C=C/c2ccccc2)nnc1-c1ccco1 | inconclusive: -41.4% |
| CC(C)NCCOc1cccc(Br)c1 | inconclusive: -56.5% |
| CC(C)OC(=O)C1C(=O)CC(C)(O)C(C(=O)OC(C)C)C1c1ccc(F)cc1 (stereo unspecified) | inconclusive: -40.7% |
| COc1ccc(NC(=O)CN2CCN(CC(=O)Nc3ccccc3OC)CC2)c(OC)c1 | inactive: 14.9% |
| COc1ccccc1NC(=O)C1=C(C)Nc2ncnn2C1c1sccc1C (stereo unspecified) | inactive: 18% |
| O=C(CNC(=O)c1ccccc1)N/N=C/c1ccc([N+](=O)[O-])s1 | inconclusive: -46.8% |
| CCCCOC(=O)Nc1nnc(-c2ccccc2OC)s1 | active: -82.9% |
| COc1ccc(OC)c(CNC(=O)CCC(=O)N2Cc3ccccc3Oc3ncccc32)c1 | inconclusive: -52.8% |
| O=C(NNS(=O)(=O)c1ccc([N+](=O)[O-])cc1)c1cnn(-c2ccccc2)c1-n1cccc1 | inactive: 51% |

3 entries out of the list, ordered by molar mass, smallest number first.

| Compound | activity change, negative = inhibition |
| --- | --- |
| Nn1c(SC/C=C/c2ccccc2)nnc1-c1ccco1 | inconclusive: -41.4% |
| CCc1ccc(S(=O)(=O)N/N=C\c2ccc3c(c2)OCO3)cc1 | inconclusive: -44.8% |
| COc1ccc2oc(C(=O)OCC(=O)NC(=O)c3ccccc3)c(C)c2c1 | inconclusive: -43.5% |

(next part)

| Compound | activity change, negative = inhibition |
| --- | --- |
| Cc1ccc2c(C)c(C(=O)Nc3nnc(C)s3)oc2c1 | active: -99.4% |
| CC1=CC(C)(C)n2c(O)c(N=NC(N)=S)c3cc(C)cc1c32 | active: -67.8% |
| COc1ccc(CCNC(=O)COC(=O)CSc2ccc([N+](=O)[O-])cc2)cc1OC | inactive: 0% |
| O=C(CSc1nnc(Cc2ccccc2)n1Cc1ccccc1)NCc1ccco1 | inconclusive: -53.6% |
| CCc1ccc(CN2CCC(C(=O)Nc3ccc(Oc4ccccc4)nc3)CC2)o1 | active: -71.6% |
| O=C(NCC1(N2CCCCC2)CCCCC1)c1ccc(NS(=O)(=O)c2ccccc2)cc1 | inactive: -15.7% |
| CCOC(=O)C1NN=C(C(=O)c2ccccc2)C1c1ccc(Cl)cc1 (stereo unspecified) | inconclusive: -44.6% |
| COc1cc(S(=O)(=O)Nc2ccc3nc(C)sc3c2)ccc1NC(C)=O | active: -88.3% |
| COc1ccc(-n2nc3c(c2NC(=O)COc2ccccc2OC)CS(=O)(=O)C3)cc1 | inconclusive: -52.9% |
| Cc1ccc(C)c(NC(=O)COC(=O)CC2CC3CCC2C3)c1 (stereo unspecified) | inconclusive: -54.1% |
| CCCCn1nnnc1C(c1cc2ccccc2o1)N1CCN(c2c(C)cccc2C)CC1 (stereo unspecified) | inconclusive: -43.5% |
| O=C(NCCn1cccn1)C1CCC(=O)N(CCc2ccc(Cl)cc2)C1 (stereo unspecified) | inconclusive: -51.6% |
| CC(=O)Nc1c(C(=O)Nc2ccccc2F)oc2ccccc12 | inactive: 4.89% |
| C=Cc1ccc(Cn2c(C(=O)OC)cc3sc(C)cc32)cc1 | inactive: -33.1% |
| Clc1ccc(COc2cccc(CNCc3ccncc3)c2)cc1 | active: -74.9% |
| O=C(CN1CCN(Cc2ccc(F)cc2)CC1)NCCc1ccccc1 | active: -80.8% |
| COc1ccc(C(=O)N/C(=C\c2cn(C)c3ccccc23)C(=O)N2CCN(C)CC2)cc1 | inactive: 30.5% |
| CN(C)c1ccc(NC(=O)Nc2ccc3c(c2)c(=O)n(C)n3Cc2ccc(Cl)cc2)cc1 | active: -88.1% |
| Cc1n[nH]c(C)c1CCCCOc1ccccc1 | active: -82.4% |
| O=C(NCC(c1cccs1)N1CCOCC1)c1cc(-c2ccc(F)cc2)nc2ccccc12 (stereo unspecified) | inactive: 20.1% |
| CCOC(=O)c1ccc(NC(=O)C2(N3C(=O)c4ccccc4C3=O)CCCC2)cc1 | inconclusive: -40.3% |
| Cc1ccccc1NC(=O)CSc1nnc(-c2cccc(Cl)c2)o1 | inactive: 43.7% |

| Compound | activity change, negative = inhibition |
| --- | --- |
| CCc1ccc(Cn2c(CNS(=O)(=O)c3ccc(Cl)s3)nc3cccnc32)cc1 | inactive: -29.6% |
| OCCC1CN(Cc2cnc(-c3ccccc3)s2)CCN1C1CCCCC1 (stereo unspecified) | inconclusive: -43.9% |
| COc1cc(-c2nc3cnccn3c2Nc2ccc(C(C)C)cc2)ccc1O | active: -91.7% |
| CC(C)CC1C(=O)N(Cc2cn(CCC3OCCCO3)nn2)CCS(=O)(=O)N1Cc1ccc(-c2ccc(Cl)c(Cl)c2)cc1 (stereo unspecified) | inconclusive: -59.8% |
| O=C(CN1CCCCC1)NCC(=O)Nc1ccc(F)c(F)c1F | inactive: -5.88% |
| COc1ccc(-n2c(SCC(=O)NCC3CCCO3)nc3ccccc3c2=O)cc1Cl (stereo unspecified) | active: -67.5% |
| CCCCC(C(=O)NC1CCCC1)N(C(=O)c1snc(C(N)=O)c1N)c1ccc(OCC)cc1 (stereo unspecified) | inconclusive: -41.1% |
| COc1cccc(CNC(=O)CC(c2ccc(C)cc2)N2Cc3ccccc3C2=O)c1 (stereo unspecified) | inactive: 21.7% |
| Cn1ccc(=O)c2cc([N+](=O)[O-])ccc21 | inconclusive: -58.8% |
| CSC1=NSC2=NC(=O)/C(=C/c3coc4ccccc4c3=O)C(=N)N12 | inactive: -14.1% |
| CCCOc1ccc(CNC(=O)Cn2c(=O)oc3ccccc32)cc1 | inactive: -8.15% and inactive: 5.84% |
| CCOc1ccc(OCC)c(NC(=O)CSc2nc3c(c(=O)n(C)c(=O)n3C)n2C(C)C)c1 | active: -62.5% |
| O=C(CN1CCCC1c1ccc2c(c1)OCCO2)NC(=O)Nc1ccccc1F (stereo unspecified) | inactive: -17.7% |
| COc1ccc(/C=N/Nc2nnc(C)n2N)cc1OC | active: -60.9% |
| Clc1ccccc1CN(Cc1ccccc1)c1ncnc2nc[nH]c12 | inactive: -27.6% |
| CCc1nn2c(=O)cc(COc3ccc(NC(=O)c4ccco4)cc3)nc2s1 | inconclusive: 0% |
| COc1cc(Br)cc(/C=N/NC(=O)Cc2ccc(C(F)(F)F)cc2[N+](=O)[O-])c1O | active: -102% |
| O=C(NCCC(=O)N1CCN(S(=O)(=O)c2ccccc2F)CC1)Nc1ccccc1 | inconclusive: -43.5% |
| CCOc1cc(/C=C2\SC(=O)N=C2N)ccc1O | inconclusive: -43.7% |
| Cc1ccc(NC(=S)N(CCN(C)C)Cc2cc3cc(C)ccc3[nH]c2=O)cc1 | inconclusive: -45.5% |

From PubChem BioAssay AID1259415 (National Center for Advancing Translational Sciences (NCATS), 2018)
